Assay results published in paper PMC6163455, “β-Lactamase Tools for Establishing Cell Internalization and Cytosolic Delivery of Cell Penetrating Peptides” (Biomolecules, 2018).
No constants are given. Whether binding was seen depends on the method and setting. In cells and extracts the contact can be indirect. Some binding calls cover weakened binding; strength is not graded here.

Target: SpyC_C-BLA fusion protein (not stated | E. coli)
Test: split reporter; split β-lactamase: purified CPP_N-BLA_SpyT incubated with CHO-K1 cells stably expressing SpyC_C-BLA in the cytoplasm; complementation through SpyT/SpyC ligation read as CCF2 cleavage (green to blue) by flow cytometry and live-cell confocal microscopy (4 µM); only the binder purified

B1: 1746c27_N-BLA_SpyT (protein)
chain: MASKKKKQPPKPKKPKTQEKKKKQPPKPKRASSGSHHHHHHGTGAGSGHPETLVKVKDAEDQLGARVGYIELDLNSGKILESFRPEERFPMMSTFKVLLCGAVLSRIDAGQEQLGRRIHYSQNDLVEYSPVTEKHLTDGMTVRELCSAAITMSDNTAANLLLTTIGGPKELTAFLHNMGDHVTRLDRWEPELNEAIPNDERDTTTPAAMATTLRKLLTGGGSASGGSGTGATSGAHIVMVDAYKPTKGGTGGS
binding: binds

B2: 0084_N-BLA_SpyT (protein)
chain: MASRKQKSLQTKLAENPPVPRKKRQSRPRWKQWLQKASSGSHHHHHHGTGAGSGHPETLVKVKDAEDQLGARVGYIELDLNSGKILESFRPEERFPMMSTFKVLLCGAVLSRIDAGQEQLGRRIHYSQNDLVEYSPVTEKHLTDGMTVRELCSAAITMSDNTAANLLLTTIGGPKELTAFLHNMGDHVTRLDRWEPELNEAIPNDERDTTTPAAMATTLRKLLTGGGSASGGSGTGATSGAHIVMVDAYKPTKGGTGGS
binding: binds

B3: 1746_N-BLA_SpyT (protein)
chain: MASPLKPKKPKTQEKKKKQPPKPKKPKTQEKKKKQPPKPKRASSGSHHHHHHGTGAGSGHPETLVKVKDAEDQLGARVGYIELDLNSGKILESFRPEERFPMMSTFKVLLCGAVLSRIDAGQEQLGRRIHYSQNDLVEYSPVTEKHLTDGMTVRELCSAAITMSDNTAANLLLTTIGGPKELTAFLHNMGDHVTRLDRWEPELNEAIPNDERDTTTPAAMATTLRKLLTGGGSASGGSGTGATSGAHIVMVDAYKPTKGGTGGS
binding: binds
